Reference: PubChem BioAssay AID248 (DTP/NCI, 2004)
The list shows only some results of the screen, not a fair sample: it is rich in T/C values a quarter to a half above the control, in often repeated tests (any T/C) and in doses without a T/C. Further doses and runs are listed elsewhere. T/C gives the treated animals as a percentage of the vehicle group. Some doses have a count of surviving animals in place of a T/C: the source files T/C as zero there, which appears to mark a toxic dose or a test without result, not a measured value. Some survivor counts are full or nearly so, which does not show that the dose was tolerated: the source hardly ever lists a survival T/C far under the control, and the zero likely stands for such cases as well. Counts of survivors are from the toxicity check (mostly the fifth day) where no day follows; animals may have died later. Schedule codes are those of the source, taken here to give the interval after Q, in days (D) or hours (H), and the number of doses after X. Signs of the kind (2×) stand for listed records that agree. Some entries were tested several times; the values are given in rising order. Some schedules carry Z or #; the key to these is not given. For survival time, this PubChem deposit counts one and a half times the control or more as active, and values a quarter to a half above the control carry no call in these data; other NCI protocols may use other cut-offs. Some T/C values are followed by the survivors on the day toxicity was checked, most often the fifth; without a count, all were alive then.

Test system: L1210 leukemia ip in BDF1 mice, survival T/C
Assay: NCI In Vivo Anticancer Drug Screen. Data for tumor model L1210 Leukemia (intraperitoneal) in B6D2F1 (BDF1) mice
Conditions: higher T/C = longer survival
[1] = T/C endpoint: median survival time, dose: 128.0 mg/kg/injection, schedule: Q01DX009 (oral), vehicle: saline
[2] = T/C endpoint: mean survival time, dose: 200.0 mg/kg/injection, schedule: Q01DX009 (ip), vehicle: saline with Tween-80
[3] = T/C endpoint: mean survival time, dose: 400.0 mg/kg/injection, schedule: Q01DX009 (ip), vehicle: saline with Tween-80

SMILES: N[C@H](C(=O)O)[C@H]1ON=C(Cl)[C@@H]1O
- T/C (T/C endpoint: mean survival time, dose: 1.56 mg/kg/injection, schedule: Q01DX009 (ip), vehicle: saline): 103, 105, 111, 113 % of control
- T/C (T/C endpoint: mean survival time, dose: 3.12 mg/kg/injection, schedule: Q01DX009 (ip), vehicle: saline): 117, 122, 126, 127 % of control
- T/C (T/C endpoint: mean survival time, dose: 6.25 mg/kg/injection, schedule: Q01DX009 (ip), vehicle: saline): 120, 128, 138, 144 % of control
- T/C (T/C endpoint: mean survival time, dose: 11.0 mg/kg/injection, schedule: Q01DX009 (ip), vehicle: Klucel (hydroxypropylcellulose) (HPC)): 135 % of control
- T/C (T/C endpoint: mean survival time, dose: 12.5 mg/kg/injection, schedule: Q01DX009 (ip), vehicle: Klucel (hydroxypropylcellulose) (HPC)): 134 % of control
- T/C (T/C endpoint: mean survival time, dose: 12.5 mg/kg/injection, schedule: Q01DX009 (ip), vehicle: saline): 136, 137, 145, 148 % of control
- T/C (T/C endpoint: mean survival time, dose: 22.0 mg/kg/injection, schedule: Q01DX009 (ip), vehicle: Klucel (hydroxypropylcellulose) (HPC)): 143 % of control
- T/C (T/C endpoint: mean survival time, dose: 25.0 mg/kg/injection, schedule: Q01DX009 (ip), vehicle: Klucel (hydroxypropylcellulose) (HPC)): 148 % of control
- T/C (T/C endpoint: mean survival time, dose: 25.0 mg/kg/injection, schedule: Q01DX009 (ip), vehicle: saline): 152, 159 (2×), 167 % of control
- T/C (T/C endpoint: mean survival time, dose: 44.0 mg/kg/injection, schedule: Q01DX009 (ip), vehicle: Klucel (hydroxypropylcellulose) (HPC)): 142 % of control
- T/C (T/C endpoint: mean survival time, dose: 50.0 mg/kg/injection, schedule: Q01DX009 (ip), vehicle: Klucel (hydroxypropylcellulose) (HPC)): 135 % of control
- T/C (T/C endpoint: mean survival time, dose: 50.0 mg/kg/injection, schedule: Q01DX009 (ip), vehicle: saline): 154, 161, 165, 167 % of control
- T/C (T/C endpoint: mean survival time, dose: 100.0 mg/kg/injection, schedule: Q01DX009 (ip), vehicle: Klucel (hydroxypropylcellulose) (HPC)): 140 % of control
- T/C (T/C endpoint: mean survival time, dose: 100.0 mg/kg/injection, schedule: Q01DX009 (ip), vehicle: saline): 117, 130, 156, 161 % of control
- T/C (T/C endpoint: median survival time, dose: 3.12 mg/kg/injection, schedule: Q01DX009 (ip), vehicle: saline): 126 % of control
- T/C (T/C endpoint: median survival time, dose: 4.0 mg/kg/injection, schedule: Q03HX016 (ip), vehicle: saline): 142 % of control
- T/C (T/C endpoint: median survival time, dose: 6.25 mg/kg/injection, schedule: Q01DX009 (ip), vehicle: saline): 135 % of control
- T/C (T/C endpoint: median survival time, dose: 6.25 mg/kg/injection, schedule: Q03HX008 (ip), vehicle: saline): 140 % of control
- T/C (T/C endpoint: median survival time, dose: 8.0 mg/kg/injection, schedule: Q01DX009 (ip), vehicle: saline): 127 % of control
- T/C (T/C endpoint: median survival time, dose: 8.0 mg/kg/injection, schedule: Q03HX008 (ip), vehicle: saline): 130 % of control
- T/C (T/C endpoint: median survival time, dose: 8.0 mg/kg/injection, schedule: Q03HX024 (ip), vehicle: saline): 137 % of control
- T/C (T/C endpoint: median survival time, dose: 12.5 mg/kg/injection, schedule: Q01DX009 (ip), vehicle: saline): 147 % of control
- T/C (T/C endpoint: median survival time, dose: 12.5 mg/kg/injection, schedule: Q03HX008 (ip), vehicle: saline): 146 % of control
- T/C (T/C endpoint: median survival time, dose: 16.0 mg/kg/injection, schedule: Q01DX009 (ip), vehicle: saline): 141 % of control
- T/C (T/C endpoint: median survival time, dose: 16.0 mg/kg/injection, schedule: Q01DX009 (sc), vehicle: saline): 127 % of control
- T/C (T/C endpoint: median survival time, dose: 16.0 mg/kg/injection, schedule: Q03HX008 (ip), vehicle: saline): 137 % of control
- T/C (T/C endpoint: median survival time, dose: 16.0 mg/kg/injection, schedule: Q03HX024 (ip), vehicle: saline): 138 % of control
- T/C (T/C endpoint: median survival time, dose: 25.0 mg/kg/injection, schedule: Q03HX008 (ip), vehicle: saline): 143 % of control
- T/C (T/C endpoint: median survival time, dose: 25.0 mg/kg/injection, schedule: Q03HX024 (ip), vehicle: saline): 141 % of control
- T/C (T/C endpoint: median survival time, dose: 25.0 mg/kg/injection, schedule: Q04DX003 (ip), vehicle: saline): 127 % of control
- T/C (T/C endpoint: median survival time, dose: 32.0 mg/kg/injection, schedule: Q01DX009 (ip), vehicle: saline): 143 % of control
- T/C (T/C endpoint: median survival time, dose: 32.0 mg/kg/injection, schedule: Q01DX009 (sc), vehicle: saline): 143 % of control
- T/C (T/C endpoint: median survival time, dose: 32.0 mg/kg/injection, schedule: Q03HX008 (ip), vehicle: saline): 142 % of control
- T/C (T/C endpoint: median survival time, dose: 50.0 mg/kg/injection, schedule: Q01DX009 (ip), vehicle: saline): 146 % of control
- T/C (T/C endpoint: median survival time, dose: 50.0 mg/kg/injection, schedule: Q03HX008 (ip), vehicle: saline): 131 % of control
- T/C (T/C endpoint: median survival time, dose: 50.0 mg/kg/injection, schedule: Q03HX024 (ip), vehicle: saline): 125 % of control
- T/C (T/C endpoint: median survival time, dose: 50.0 mg/kg/injection, schedule: Q04DX003 (ip), vehicle: saline): 141 % of control
- T/C (T/C endpoint: median survival time, dose: 64.0 mg/kg/injection, schedule: Q01DX009 (ip), vehicle: saline): 148 % of control
- T/C (T/C endpoint: median survival time, dose: 64.0 mg/kg/injection, schedule: Q01DX009 (oral), vehicle: saline): 145 % of control
- T/C (T/C endpoint: median survival time, dose: 64.0 mg/kg/injection, schedule: Q03HX008 (ip), vehicle: saline): 132 % of control
- T/C (T/C endpoint: median survival time, dose: 64.0 mg/kg/injection, schedule: Q03HX016 (ip), vehicle: saline): 145 % of control
- T/C (T/C endpoint: median survival time, dose: 100.0 mg/kg/injection, schedule: Q03HX008 (ip), vehicle: saline): 145 % of control
- T/C [1]: 125 % of control
- survivor count [1]: 10 of 10
- T/C (T/C endpoint: median survival time, dose: 128.0 mg/kg/injection, schedule: Q03HX008 (ip), vehicle: saline): 131 % of control [9 of 10 alive]
- T/C (T/C endpoint: median survival time, dose: 128.0 mg/kg/injection, schedule: Q03HX016 (ip), vehicle: saline): 148 % of control
- T/C (T/C endpoint: median survival time, dose: 200.0 mg/kg/injection, schedule: Q04DX003 (ip), vehicle: saline): 130 % of control
- T/C (T/C endpoint: median survival time, dose: 256.0 mg/kg/injection, schedule: Q01DX009 (sc), vehicle: saline): 147 % of control
- T/C (T/C endpoint: median survival time, dose: 256.0 mg/kg/injection, schedule: Q04DX003 (ip), vehicle: saline): 125 % of control
- T/C (T/C endpoint: median survival time, dose: 400.0 mg/kg/injection, schedule: Q04DX003 (ip), vehicle: saline): 147 % of control
- survivor count (T/C endpoint: median survival time, dose: 512.0 mg/kg/injection, schedule: Q01DX009 (oral), vehicle: saline): 10 of 10
- T/C (T/C endpoint: median survival time, dose: 512.0 mg/kg/injection, schedule: Q04DX003 (ip), vehicle: saline): 132 % of control
- T/C (T/C endpoint: median survival time, dose: 1024.0 mg/kg/injection, schedule: Q01DX001 (oral), vehicle: saline): 125 % of control
- survivor count (T/C endpoint: median survival time, dose: 1024.0 mg/kg/injection, schedule: Q01DX009 (oral), vehicle: saline): 4 of 10 and 8 of 10
- T/C (T/C endpoint: median survival time, dose: 1024.0 mg/kg/injection, schedule: Q04DX003 (ip), vehicle: saline): 147 % of control
- T/C (T/C endpoint: median survival time, dose: 2048.0 mg/kg/injection, schedule: Q01DX001 (oral), vehicle: saline): 132 and 137 % of control
- survivor count (T/C endpoint: median survival time, dose: 2048.0 mg/kg/injection, schedule: Q01DX009 (oral), vehicle: saline): 1 of 10 and 6 of 10

SMILES: CCN1C(=O)C(Cl)=C(Cl)C1=O
- survivor count (T/C endpoint: mean survival time, dose: 12.5 mg/kg/injection, schedule: Q01DX009 (ip), vehicle: saline with Tween-80): 0 of 6
- survivor count (T/C endpoint: mean survival time, dose: 25.0 mg/kg/injection, schedule: Q01DX009 (ip), vehicle: saline with Tween-80): 0 of 6 (2×)
- survivor count (T/C endpoint: mean survival time, dose: 50.0 mg/kg/injection, schedule: Q01DX009 (ip), vehicle: saline with Tween-80): 0 of 6
- survivor count (T/C endpoint: mean survival time, dose: 100.0 mg/kg/injection, schedule: Q01DX009 (ip), vehicle: saline with Tween-80): 0 of 6 (2×)
- survivor count [2]: 0 of 6
- survivor count [3]: 0 of 6

SMILES: CNC1CC2CCC1(C)C2(C)C (stereo not drawn)
- survivor count (T/C endpoint: mean survival time, dose: 200.0 mg/kg/injection, schedule: Q04DX002 (ip), vehicle: saline): 0 of 3
- survivor count (T/C endpoint: mean survival time, dose: 400.0 mg/kg/injection, schedule: Q04DX002 (ip), vehicle: saline): 0 of 3

SMILES: N#CN1CCCC1
- survivor count (T/C endpoint: mean survival time, dose: 100.0 mg/kg/injection, schedule: Q01DX Z (ip), vehicle: saline): 1 of 6

SMILES: NC(=O)NN=C1CCC(CC2CCCCC2)CC1 (stereo not drawn)
- survivor count (T/C endpoint: mean survival time, dose: 100.0 mg/kg/injection, schedule: Q04DX003 (ip), vehicle: saline with Tween-80): 5 of 6

SMILES: CCOC(=O)n1ccn2cncc2c1=O
- survivor count [2]: 4 of 6
- survivor count [3]: 0 of 6

SMILES: O=[N+]([O-])c1cc(Br)cc(Br)c1O
- survivor count (T/C endpoint: mean survival time, dose: 200.0 mg/kg/injection, schedule: Q04DX002 (ip), vehicle: Klucel (hydroxypropylcellulose) (HPC)): 1 of 3
- survivor count (T/C endpoint: mean survival time, dose: 400.0 mg/kg/injection, schedule: Q04DX002 (ip), vehicle: Klucel (hydroxypropylcellulose) (HPC)): 0 of 3

SMILES: c1cncc(C2SCCCS2)c1
- survivor count (T/C endpoint: mean survival time, dose: 400.0 mg/kg/injection, schedule: Q04DX002 (ip), vehicle: DMSO): 3 of 3

SMILES: Nc1ncnc(N)c1NC(=O)c1ccc(SCc2ccccc2)cc1
- survivor count (T/C endpoint: mean survival time, dose: 200.0 mg/kg/injection, schedule: Q01DX009 (ip), vehicle: Klucel (hydroxypropylcellulose) (HPC)): 6 of 6
